For 9 molecules, binding results are on record in publication PMC4357442.

The target of assay [1] is T1, Smc5-6Flag (S. cerevisiae (budding yeast)) (UniProt Q08204).
T1 sequence: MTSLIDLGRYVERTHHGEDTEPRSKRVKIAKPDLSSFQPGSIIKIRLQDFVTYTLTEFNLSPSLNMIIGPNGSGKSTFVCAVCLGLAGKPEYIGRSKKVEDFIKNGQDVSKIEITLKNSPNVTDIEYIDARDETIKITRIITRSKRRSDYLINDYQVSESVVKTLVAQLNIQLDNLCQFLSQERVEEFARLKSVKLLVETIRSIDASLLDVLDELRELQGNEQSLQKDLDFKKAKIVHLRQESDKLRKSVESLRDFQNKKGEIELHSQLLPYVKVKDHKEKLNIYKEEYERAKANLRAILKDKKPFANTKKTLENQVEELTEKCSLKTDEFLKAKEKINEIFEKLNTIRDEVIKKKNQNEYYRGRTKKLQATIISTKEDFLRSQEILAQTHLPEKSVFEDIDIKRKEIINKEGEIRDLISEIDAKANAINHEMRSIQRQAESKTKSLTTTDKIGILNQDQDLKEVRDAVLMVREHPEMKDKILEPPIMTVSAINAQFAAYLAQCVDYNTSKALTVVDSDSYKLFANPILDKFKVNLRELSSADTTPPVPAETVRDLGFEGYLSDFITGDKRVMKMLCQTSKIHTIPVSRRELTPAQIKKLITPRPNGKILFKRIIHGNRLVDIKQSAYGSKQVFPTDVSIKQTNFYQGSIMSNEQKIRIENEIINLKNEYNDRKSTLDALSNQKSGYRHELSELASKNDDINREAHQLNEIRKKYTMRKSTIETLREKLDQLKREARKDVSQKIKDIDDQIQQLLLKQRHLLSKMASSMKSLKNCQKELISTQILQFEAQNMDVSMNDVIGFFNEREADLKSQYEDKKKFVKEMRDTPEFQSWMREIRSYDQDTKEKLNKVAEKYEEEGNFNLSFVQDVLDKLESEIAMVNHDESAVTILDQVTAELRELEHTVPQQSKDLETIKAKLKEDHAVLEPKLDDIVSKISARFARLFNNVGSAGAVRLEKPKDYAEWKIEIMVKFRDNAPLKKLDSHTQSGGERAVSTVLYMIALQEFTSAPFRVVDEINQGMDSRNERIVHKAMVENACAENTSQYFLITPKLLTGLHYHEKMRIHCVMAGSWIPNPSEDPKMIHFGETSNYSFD
As to the kind of experiment: co-IP; Smc5-6Flag immunoprecipitation (anti-FLAG M2 gel) from wild type, nse3-2 or nse5-2 cells kept at 25°C or shifted to 37°C for 2 h; western blot of 9myc-tagged Nse proteins or Mms21-6HA. For orientation: A western blot detects proteins with antibodies after separation by electrophoresis.

The target of assay [2] is T2, Mms21-3HA (S. cerevisiae (budding yeast)) (UniProt P38632).
T2 sequence: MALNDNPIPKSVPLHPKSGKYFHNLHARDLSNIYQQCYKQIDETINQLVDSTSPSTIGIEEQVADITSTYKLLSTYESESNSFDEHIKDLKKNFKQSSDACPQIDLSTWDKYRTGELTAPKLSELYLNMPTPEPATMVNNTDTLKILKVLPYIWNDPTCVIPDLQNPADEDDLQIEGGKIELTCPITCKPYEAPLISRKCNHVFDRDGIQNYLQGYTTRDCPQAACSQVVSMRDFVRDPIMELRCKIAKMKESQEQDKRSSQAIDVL
The assay can be described thus: co-IP; Mms21-3HA immunoprecipitated from exponentially growing cells transformed with SMC5-expressing centromeric plasmids.

In assay [3] the target is T3, Mms21-6HA (S. cerevisiae (budding yeast)) (UniProt P38632).
T3 sequence: T2 sequence
The assay can be described thus: co-IP; anti-HA immunoprecipitation from MMS21-6HA or NSE4-6HA yeast cells transformed with centromeric plasmids expressing SMC5-9myc alleles; western blot.

The target in assay [4] is T4, Nse4-6HA (S. cerevisiae (budding yeast)) (UniProt P43124).
T4 sequence: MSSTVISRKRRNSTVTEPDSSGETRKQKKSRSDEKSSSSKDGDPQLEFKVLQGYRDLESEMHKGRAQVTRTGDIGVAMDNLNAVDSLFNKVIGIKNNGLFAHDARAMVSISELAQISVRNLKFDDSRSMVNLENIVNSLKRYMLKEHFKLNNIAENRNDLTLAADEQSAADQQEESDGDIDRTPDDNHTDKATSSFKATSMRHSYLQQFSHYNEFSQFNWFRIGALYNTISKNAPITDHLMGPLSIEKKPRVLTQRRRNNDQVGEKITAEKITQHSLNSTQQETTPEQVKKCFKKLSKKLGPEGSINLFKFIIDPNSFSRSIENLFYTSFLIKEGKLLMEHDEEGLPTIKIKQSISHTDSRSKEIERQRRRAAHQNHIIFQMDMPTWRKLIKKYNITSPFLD
Described as above.

Assay [5] addresses T3, Mms21-6HA (S. cerevisiae (budding yeast)). The assay can be described thus: co-IP; anti-HA beads; Mms21-6HA immunoprecipitated from GALp-SMC5 cells expressing SMC5 or smc5-DLEL from a centromeric vector, shifted to glucose for 6 h.

Residue numbers refer to the chain shown, from its start. Names may count otherwise. No constants are given. Whether binding was seen depends on the method and setting. In cells and extracts the contact can be indirect. Some entries that bind do so weakly or less than the wild type. Where a sequence is shown, tags or fusion partners need not be part of it.

B1: Nse3-9myc (wild type) (protein, UniProt Q05541 1-303)
chain: MSSIDNDSDVDLTEDLAVAKIVKENPVARKMVRYILSRGESQNSIITRNKLQSVIHEAAREENIAKPSFSKMFMDINAILYNVYGFELQGLPSKNNMNAGGNGSNSNTNKSMPEPLGHRAQKFILLNNVPHSKNFDDFKILQSAHTYEELIVTGEYIGDDIASGTSNTLESKLSTDRDLVYKGVLSVILCIVFFSKNNILHQELIKFLETFGIPSDGSKIAILNITIEDLIKSLEKREYIVRLEEKSDTDGEVISYRIGRRTQAELGLESLEKLVQEIMGLEKEQTKSLHDDIIKSIGDSYSI
As to B1, the binding result in assay [1] is “binds”.

B2: Mms21-6HA (protein, UniProt P38632 1-267)
chain: T2 sequence
B2: the binding result in assay [1] is “binds”.

B3: smc5(K75I)-9myc (protein, UniProt Q08204 1-1093)
chain: T1 sequence with K75I
Turning to B3, the binding entry in assay [2] was “binds”.

B4: smc5-S2-9myc (protein, UniProt Q08204 1-1093)
chain: T1 sequence with M769A, K773A
For B4, the binding result in assay [3] and in assay [4] was “binds” throughout.

B5: smc5-S1-9myc (protein, UniProt Q08204 1-1093)
chain: T1 sequence with I780R, I784R, F787A, N791A
In the case of B5, the figures for the binding result in assay [3] and in assay [4] were “no binding” and “binds”, respectively.

B6: smc5(D1014A)-9myc (protein, UniProt Q08204 1-1093)
chain: T1 sequence with D1014A
Take B6: the binding result in assay [2] is on record as “binds”.

B7: smc5-S3-9myc (protein, UniProt Q08204 1-1093)
chain: T1 sequence with Q752A, L755A, L762A
In the case of B7, in assay [4], the binding entry is recorded as “binds”.

B8: smc5-DLEL-9myc (protein, UniProt Q08204 1-1093)
chain: T1 sequence with H391D, P393E, E394L
B8: the binding result in assay [5] is “binds”.

B9: Nse5-9myc (wild type) (protein, UniProt Q03718 1-556)
chain: MDGALINSVLYVSPRNGAHYFVELTEKHLLAFEMLNSMCLLENYDHVLLFLECQFGKSHNLAVIPFDIILVLFTLSTLSEYYKEPILRANDPYNTSRETLSRRALKLLQKYLAILKEFDSEQYNLYDLELLRCQFFLAIDTLTPKKQKWGFDRFRRTKSESGVTYRQNASVDPELDQAKTFKNPYRSYISCLEQRNTILGNRLLNLKLNEPGEFINMILWTLSNSLQESTPLFLSSHEIWMPLLEILIDLFSCRQDYFIQHEVAQNVSKSLFVQRLSESPLAVFFESLNTRNFANRFSEYVFLNCDYKLPSDNYATPVHPVYNGENTIVDTYIPTIKCSPLYKSQKSLALRRKLIGSCFKLLLRVPDGHRLITPRIVADDVIQGISRTLASFNDILQFKKFFMTENLSQESYFIPLLAEGTLSEILKDTQECVVILTLVENLSDGVSFCNEVIGLVKSKCFAFTEQCSQASYEEAVLNIEKCDVCLLVLLRYLLHLIGTEAILDAKEQLEMLHAIEKNDSGRRQWAKALNLGNDPPLLYPIVSQMFGVHDKSVIIE
As to B9, the binding entry in assay [1] was “binds”.
